Results taken from patent US20260297127A1, “REVERSIBLE SURFACTANT AND MULTIFUNCTIONAL DRUG DELIVERY SYSTEMS BASED THEREON” (Yissum Research Development Company of the Hebrew …, priority 2023, published 2026).

Test: Emulsion functionalization with hexahistidine-tagged compounds (fluorescence)
Settings: fluorescence microscopy; for localization on the emulsion: pH 7.5

Row | Compound | droplet coating fluorescence (H6-Rh added) | localization on the emulsion | state after pH is lowered (lowered / acidic pH)
1 | CCN(CC)c1ccc2c(-c3ccccc3C(=O)N[C@@H](Cc3c[nH]cn3)C(=O)N[C@@H](Cc3c[nH]cn3)C(=O)N[C@@H](Cc3c[nH]cn3)C(=O)N[C@@H](Cc3c[nH]cn3)C(=O)N[C@@H](Cc3c[nH]cn3)C(=O)N[C@@H](Cc3c[nH]cn3)C(N)=O)c3ccc(=[N+](CC)CC)cc-3oc2c1 [H6—Rh, NH2-(His)6-Rhodamine B] | stronger fluorescence at the circumference of the droplets |  | 
2 | CCN(CC)c1ccc2nc3c4ccccc4c(=O)cc-3oc2c1 [Nile red] |  | inside the oil droplets | 
3 | NH2-(His)6-FITC [H6-FITC] |  | encircling the droplets | formed aggregates
